PubChem BioAssay AID1259254, NCATS | 2017

Assay: 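Gene knock-downs that lead to re-replication, shown by excess G2 DNA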 (primary screen)
Cell system: human HCT116 colorectal cancer cells
Knock-down reagent: single siRNA against human genes
Timing: 3 days
Measured: 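Imaged Hoechst DNA stain sorts each cell into a cycle phase by DNA amount; per plate, G2 fraction set to 0% for non-targeting and 100% for GMNN siRNA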
Direction: G2 robust z-score: higher = more G2 cells, more excess DNA replication
Active means: 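Active siRNAs have a G2 robust z of 5 or more median absolute deviations over the median, which in these data means about 38% or higher of GMNN control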
The deposit covers about 59,000 reagents; shown is an unselected part. About 1,550 of them (2.6%) were called active. 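G2 share is only a proxy for re-replication; each gene was hit by three separate siRNAs, and active genes were retested.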 Unmarked entries are inactive. The numbers tell different reagents against one gene apart. Not all columns of the deposit are shown. The record does not give: the amount of reagent.

Against ATG9B (GeneID 285973) #1, the entry reads G2 robust z-score -0.626.
Knock-down of ATG9B (GeneID 285973) #2 gave: G2 robust z-score 0.792.
After knock-down of ATG9B (GeneID 285973) #3, the record shows G2 robust z-score -0.413.
Against SLC33A1 (GeneID 9197) #1 the deposit lists G2 robust z-score -0.774.
SLC33A1 (GeneID 9197) #2 gave G2 robust z-score 2.3.
With knock-down of SLC33A1 (GeneID 9197) #3 the results were G2 robust z-score -1.21.

2 neighbouring reagents already listed, for reference:
ATG9B (GeneID 285973) #2 → G2 robust z-score = 0.792
ATG9B (GeneID 285973) #3 → G2 robust z-score = -0.413

Continued.
After knock-down of EXOC1 (GeneID 55763) #1, the record shows G2 robust z-score -0.392.
EXOC1 (GeneID 55763) #2 gave G2 robust z-score 0.898.
Depletion of EXOC1 (GeneID 55763) #3 came out at: G2 robust z-score 1.78.
For OR5K1 (GeneID 26339) #1 the deposit lists G2 robust z-score -0.421.
For OR5K1 (GeneID 26339) #2, the entry reads G2 robust z-score 0.107.
OR5K1 (GeneID 26339) #3 gave G2 robust z-score -0.132.
